Some of these results come from one statement about several compounds together.
Columns and labels:
[1] = tested on: MDA-MB-468 (human breast cancer cells); experiment: Tumor cell proliferation inhibition (SRB, 72 hours), MDA-MB-468; type: cell-based; conditions: listed as 1-3
Procedure: (§1) Inoculating HCT116 (human colon cancer cells), HCC1937 (human breast cancer cells), MDA-MB-231 (human breast cancer cells) and MDA-MB-468 (human breast cancer cells) in a logarithmic growth phase with a certain quantity in a 96-well plate (200 μL/well) for culture for 24 hours so as to adhere to walls and then adding drugs. Arranging 3 duplicate wells for each drug concentration, and setting corresponding zero-cut holes and blank controls. After 72 hours of drug action, adding 50% TCA (50 μL/well) into adherent cells, fixing at 4° C. for 1 hour, pouring a fixing solution, washing for 5 times with distilled water, and naturally drying. Adding 100 μL of 4 mg/mL SRB into each well, staining at a room temperature for 15 minutes, discarding, washing for 5 times with 1% glacial acetic acid, and naturally drying. Finally, adding 150 μL of a 10 mM Tris solution into each well, shaking to be uniform, and measuring OD values at a wavelength of 565 nm using a wavelength-adjustable microplate reader (VERSAmax™, Molecular Device).

[2] = tested on: MDA-MB-231 (human breast cancer cells); experiment: Tumor cell proliferation inhibition (SRB, 72 hours), MDA-MB-231; type: cell-based; conditions: listed as 1-3
Procedure: as §1

Nc1cc(C(F)(F)F)c(-c2nc3c(c(N4CCOCC4)n2)CCN(C(=O)c2cc(Cc4n[nH]c(=O)c5ccccc45)ccc2F)C3)cn1 [I-3, 4-(3-(2-(6-amino-4-(trifluoromethyl)pyridin-3-yl)-4-morpholinyl-5,6,7,8-tetrahydropyrido [3,4-d]pyrimidin-7-formyl)-4-fluorobenzyl)phthalazin-1(2H)-one]
IC50 [1]: < 1000 nM | IC50 [2]: < 1000 nM
